Data as given in PubChem BioAssay AID1671195 (Yale University, 2021).
Screen: 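Genes whose knockdown alters LDL uptake in liver cancer cells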 (primary screen). System: human Huh7 hepatoma cells. Knock-down reagent: siRNA pool against human genes, 18 nM. Timing: about 2 to 2.5 days of knockdown, then 8 h LDL uptake. Treatment: DiI-labelled LDL at 30 µg/ml for 8 h, in lipoprotein-deficient serum medium. Measurement: 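Per-cell DiI-LDL intensity by automated imaging; well means scaled to the plate median and given as a robust z-score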. Scale: robust z-score: higher = more LDL uptake after knockdown. Active means: 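a gene counts as active if at least two replicate z-scores exceed ±2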.
Shown is an unselected part of about 22,000 reagents. About 1,510 of them (6.9%) were called active. 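Active includes knockdowns raising or lowering LDL uptake; positive z-scores mean more uptake, negative mean less.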

TKTL1
- robust z-score, replicate 1: 0.0744
- robust z-score, replicate 2: 0.422
- robust z-score, replicate 3: 0.288
- outcome: inactive

GTF2IRD1
- robust z-score, replicate 1: 0.64
- robust z-score, replicate 2: 0.232
- robust z-score, replicate 3: 0.136
- outcome: inactive

SUCNR1
- robust z-score, replicate 1: 1.08
- robust z-score, replicate 2: -0.732
- robust z-score, replicate 3: 1.81
- outcome: inactive

UTP14A
- robust z-score, replicate 1: -0.459
- robust z-score, replicate 2: 0.0513
- robust z-score, replicate 3: 0.0378
- outcome: inactive

LOC441655 (retired record)
- robust z-score, replicate 1: -0.437
- robust z-score, replicate 2: -0.522
- robust z-score, replicate 3: -0.129
- outcome: inactive

EDA2R
- robust z-score, replicate 1: -1.53
- robust z-score, replicate 2: -1.44
- robust z-score, replicate 3: -1.48
- outcome: inactive

LTO1
- robust z-score, replicate 1: 2.3
- robust z-score, replicate 2: 2.33
- robust z-score, replicate 3: 1.97
- outcome: active

LINC02914
- robust z-score, replicate 1: -1.25
- robust z-score, replicate 2: -1.17
- robust z-score, replicate 3: -1.25
- outcome: inactive

CLIP2
- robust z-score, replicate 1: 0.307
- robust z-score, replicate 2: 1.05
- robust z-score, replicate 3: 0.693
- outcome: inactive

RAD51C
- robust z-score, replicate 1: 0.726
- robust z-score, replicate 2: 0.501
- robust z-score, replicate 3: 0.904
- outcome: inactive

AADACP1
- robust z-score, replicate 1: 0.309
- robust z-score, replicate 2: 0.146
- robust z-score, replicate 3: 0.0532
- outcome: inactive

ADPRS
- robust z-score, replicate 1: -0.556
- robust z-score, replicate 2: -0.876
- robust z-score, replicate 3: -1.09
- outcome: inactive

CEBPG
- robust z-score, replicate 1: -0.515
- robust z-score, replicate 2: -0.401
- robust z-score, replicate 3: 2.14
- outcome: inactive

OR12D2
- robust z-score, replicate 1: -0.0406
- robust z-score, replicate 2: 0.14
- robust z-score, replicate 3: 0.966
- outcome: inactive

IL17RD
- robust z-score, replicate 1: -0.568
- robust z-score, replicate 2: -1.01
- robust z-score, replicate 3: -0.112
- outcome: inactive

TSPYL5
- robust z-score, replicate 1: 0.548
- robust z-score, replicate 2: -0.0431
- robust z-score, replicate 3: -0.0654
- outcome: inactive

ZNF528
- robust z-score, replicate 1: -0.223
- robust z-score, replicate 2: -0.393
- robust z-score, replicate 3: -0.573
- outcome: inactive

FAM171B
- robust z-score, replicate 1: -0.7
- robust z-score, replicate 2: -1.37
- robust z-score, replicate 3: -1.61
- outcome: inactive

PSKH2
- robust z-score, replicate 1: -1.02
- robust z-score, replicate 2: -0.805
- robust z-score, replicate 3: -1.33
- outcome: inactive

SLC9D1
- robust z-score, replicate 1: -0.563
- robust z-score, replicate 2: -1.54
- robust z-score, replicate 3: -0.839
- outcome: inactive

LOC387702 (retired record)
- robust z-score, replicate 1: 0.0768
- robust z-score, replicate 2: -0.624
- robust z-score, replicate 3: -0.547
- outcome: inactive

GARIN1A
- robust z-score, replicate 1: 0.106
- robust z-score, replicate 2: -0.0891
- robust z-score, replicate 3: -0.197
- outcome: inactive

LOC442145 (retired record)
- robust z-score, replicate 1: 0.0225
- robust z-score, replicate 2: -0.192
- robust z-score, replicate 3: 0.0768
- outcome: inactive

ERCC4
- robust z-score, replicate 1: 0.645
- robust z-score, replicate 2: 0.788
- robust z-score, replicate 3: 0.94
- outcome: inactive

2 consecutive entries already listed:
SUCNR1
- robust z-score, replicate 1: 1.08
- robust z-score, replicate 2: -0.732
- robust z-score, replicate 3: 1.81
- outcome: inactive

UTP14A
- robust z-score, replicate 1: -0.459
- robust z-score, replicate 2: 0.0513
- robust z-score, replicate 3: 0.0378
- outcome: inactive
